Reference: publication PMC12661985, “USP25 deubiquitinates cytosolic METTL3 to impede glioma proliferation via an m6A-independent pathway” (iScience, 2025)
No constants are given. Whether binding was seen depends on the method and setting. In cells and extracts the contact can be indirect. A yes stands for co-enrichment or nearness to the bait. Other partners may have been found.

The chains behind the UniProt entries cited, without tags or fusion partners.
UniProt Q86U44: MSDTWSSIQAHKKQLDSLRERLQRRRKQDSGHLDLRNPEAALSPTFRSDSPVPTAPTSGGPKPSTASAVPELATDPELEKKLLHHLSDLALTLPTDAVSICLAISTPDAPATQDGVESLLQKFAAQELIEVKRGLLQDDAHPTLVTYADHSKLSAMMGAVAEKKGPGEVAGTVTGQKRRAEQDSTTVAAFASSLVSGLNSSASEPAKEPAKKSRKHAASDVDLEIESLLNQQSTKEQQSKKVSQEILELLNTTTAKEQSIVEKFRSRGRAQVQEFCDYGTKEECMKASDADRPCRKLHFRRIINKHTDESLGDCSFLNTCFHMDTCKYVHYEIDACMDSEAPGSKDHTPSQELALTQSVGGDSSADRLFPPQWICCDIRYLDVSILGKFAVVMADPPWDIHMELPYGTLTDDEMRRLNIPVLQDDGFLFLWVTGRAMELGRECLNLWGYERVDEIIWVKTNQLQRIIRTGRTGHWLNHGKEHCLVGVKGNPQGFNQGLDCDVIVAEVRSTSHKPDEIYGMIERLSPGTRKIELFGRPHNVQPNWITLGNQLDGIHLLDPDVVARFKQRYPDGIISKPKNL
UniProt Q9UHP3: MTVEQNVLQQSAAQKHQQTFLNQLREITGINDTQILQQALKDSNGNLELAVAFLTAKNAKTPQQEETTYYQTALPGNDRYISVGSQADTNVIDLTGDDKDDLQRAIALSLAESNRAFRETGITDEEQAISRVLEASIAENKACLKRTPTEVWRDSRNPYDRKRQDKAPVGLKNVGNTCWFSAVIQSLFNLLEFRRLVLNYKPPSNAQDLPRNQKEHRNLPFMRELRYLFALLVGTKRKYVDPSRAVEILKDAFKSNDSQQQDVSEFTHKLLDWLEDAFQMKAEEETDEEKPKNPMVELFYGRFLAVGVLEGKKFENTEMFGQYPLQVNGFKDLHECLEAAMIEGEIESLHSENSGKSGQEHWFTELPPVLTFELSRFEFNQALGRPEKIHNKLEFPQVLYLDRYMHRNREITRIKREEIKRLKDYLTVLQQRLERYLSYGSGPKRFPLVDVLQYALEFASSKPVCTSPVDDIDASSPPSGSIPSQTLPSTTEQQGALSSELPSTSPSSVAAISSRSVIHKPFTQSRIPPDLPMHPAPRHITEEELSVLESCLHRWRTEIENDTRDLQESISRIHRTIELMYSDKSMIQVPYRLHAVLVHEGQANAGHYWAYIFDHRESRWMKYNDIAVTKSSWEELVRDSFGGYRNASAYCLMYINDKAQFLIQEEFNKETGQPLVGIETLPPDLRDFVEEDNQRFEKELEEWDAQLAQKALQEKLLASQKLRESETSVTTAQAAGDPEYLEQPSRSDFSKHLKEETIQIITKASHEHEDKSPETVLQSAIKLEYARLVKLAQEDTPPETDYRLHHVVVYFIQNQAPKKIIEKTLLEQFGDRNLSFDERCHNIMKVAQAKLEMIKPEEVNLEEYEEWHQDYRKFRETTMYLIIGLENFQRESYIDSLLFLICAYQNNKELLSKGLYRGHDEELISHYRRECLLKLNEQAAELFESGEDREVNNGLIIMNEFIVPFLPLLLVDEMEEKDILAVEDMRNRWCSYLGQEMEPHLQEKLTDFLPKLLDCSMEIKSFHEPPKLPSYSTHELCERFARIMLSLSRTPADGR

Target: Flag-METTL3 (human) (UniProt Q86U44)
Assay: affinity purification with mass spectrometry; U87-MG cells infected with lentivirus encoding Flag-METTL3 for 36 h, 25 uM MG132 for 6 h; Flag immunoprecipitation, SDS-PAGE, Coomassie staining, LC-MS/MS of gel segments

With “USP25 (endogenous) (from UniProt Q9UHP3 1-1055) (enzyme)” the binding was “binds”.
